The DeepSol protein solubility set

Test: soluble on expression in E. coli; label from the status in PepcDB or PDB records

Sequence | soluble on expression in E. coli
SASPRTRKVLKEVRAQDENNVCFECGAFNPQWVSVTYGIWICLECSGRHRGLGVHLSFVRSVTMDKWKDIELEKMKAGGNAKFREFLEAQDDYEPSWSLQDKYSSRAAALFRDKVATLAEGKEWSLESSPAQNWTPPQPKTLQFTAHRPAGQPQNVTTSGDKAFEDWLNDDLGSYQGAQENRYVGFGNTVPPQKREDDFLNSAMSSLYSGWSSFTTGASKFASAAKEGATKFGSQASQKASELGHSLNENVLKPAQEKVWVAPKSRCLCVPLRLFTDLGNGYVGDLQNLASNLLQSRWPWASFS | soluble
MGCRQNNERYIGPHAMEPRNDTGELLATFCETNRLWHTNSMFKKPMHKRWTFVSPDGNHRHEIDHILANGKFVTDTTVLPSFTNGSDHRLLRCNLHFNNCLAKLEQVRRRKPPKRVLDPAIAYAISATVTVQSDPDLDTDYDNLIQSLKELQDQAIVRPANHSSNRLSEETRKLLNKRRFMDRNDPQFKSISDKCREAVQKDHEAFASTRLLSAANQKKSLKRVARDINEYKSVIPCLKSTSTGERITSRVKMEQEIEKFYTELFKSAVSNSQTSSIPATATPPPFLPEEIRHVLRSFPNGKAAGQDKISADFLKSCHDNVIDLITDRFNRYLHSRNVPKPWKTSKTTLIFKKGDRENLENYRPICLLPVLYKVFTKCLLNRMRRSLDEAQPVEQAGFRRSFSTIDHIHSLQRLLEVGREYQIPLTLVFIDFKKAFDSVEHQAIWKSLDEQGADGAYIDLLKECYKNCTTNFTPFHRPVAVPVTKGVRQGDPISPNLFSACLEHVFRKLSWIELKGEAEDYDTIPGMRVNGRNLTNLRFADDIVLIANHPNIASKMLQELVQKCSEVGLEINTGKTKVLRNRFADPSKVYFGSPSPTTQLDDVDEYIYLGRQINAQNNLMPEIHRRRRAAWAAFNGIKNTTDSITDKKIRANLFDSIVLPALTYGSEAWTFTKALSERVRITHASLERRLVGITLTQQRERDLHREDIRTMSLVRDPLNFVKKRKLGWAGHVARRKDGRWTTLMTEWRPYGWKRPVGRPPMRWTDSLRKEITTRDADGEVITPWSTIAKDRKQWLAVIRRNTTNS | not soluble
MSLTAPHIVDPERLLREALGEASPDLLRHLLQTVINALLSADADAVCGAEYGKPSEHRTAQRNGYRHRPLDTRAGTIDVAIPKLRAGTYFPEWLLERRKRAESALITVVADCYLAGVSTRRMDKLVRQLGIDSLSKSQVSRMAQELDEHIEAFRHRPLGEAGPFVFLAADALTMKVREGGRVINAVAMVATGVNADGRREVLGLRVATTETGAAWNEFFADLVARGLAGVALVTSDSHRGLVEAVAANLPGAVWQRCRTHYAANLMAVTPKSMWPAVKAMLHSVYDQPDGPAVQAQFERLLDYVQDRLPAVAGHLDAAREDILAFTSFPRDVWSQIWSNNPAERLNREIRRRTDSVGIFPNRDAVVRLVGAVLAEQTDEWAEGRRYLGLELLARCREPLTTEQETVMSTEVMPTEGHHHHHH | soluble
GSSHHHHHHSSGLVPRGSHMSVHQVIELPAPAQPISVTMVTPADLEPPQAVQPPPEPVVEPEPEPEPIPEPPKEAPVVIEKPKPKPKPKPKPVKKVQEQPKRDVKPVESRPASPFENTAPARLTSSTATAATSKPVTSVASGPRALSRNQPQYPARAQALRIEGQVKVKFDVTPDGRVDNVQILSAKPANMFEREVKNAMRRWRYEPGKPGSGIVVNILFKINGTTEIQ | soluble
MSPGSVVVTGANRGIGLGLVKQFVKDKNIRHIIATARDVEKATVSLKTQFYNCMCFSKNQDLKSINDPRLHVIPLALTCDKSMDKFVSKVGDIVGSDGLNLLVNNAGSAVKYSTKAEPSRAKLVEQFDVNTFSVVILSQKLLPLLTKASSKVSGDELSVSRAAVVTISSGLGSITENTSGSGVIEGLAYRMSKSAVNMFARTFAIDMKDDYILAANFCPGWVQTDMGGKHAALTVSLGV | not soluble
MSLVMRESTTISKRRACLLAGLSRTVLHYESKVQPENEQLQARLVEVASERRRFGYRRLHALVRREGVQVNHKRIYRLYSSAGLSVRHRKKRHGVAVERQALELPSSPKQVWSMDFVSDALANGRRIKVLTIVDDFSKEAIDLAVDFGISGHYVTRVLDQAARFRGYPKAVRTDQGPEFTGKAMDQWAYQHGVQLKLIQAGKPTQNAFIESFNGRFRDECLNDHWFTSLPQARILIAAWRRDYNQHRPHSSMDYLTPAEFAAKHRSCDPDDPVGKGCLEGHHHHHH | soluble
SSSLRQVEWIIEDSGAVFAITETREHSELMKNLVLGDDGHPPLKGSPSQLRRIVEINSSAISTLKFEGRDVPDSVVEERIANTSSSDLASLVYTSGTTGRPKGCCLTHYNWLSQVRGLLTNDIGAIAVPGNR | not soluble
EEEFLLSYIPAPKELKAVLDNYVIGQEQAKKVFSVAVYNHYKRLSFKEKLKKQDNQDSNVELEHLEEVELSKSNILLIGPTGSGKTLMAQTLAKHLDIPIAISDATSLTEAGYVGEDVENILTRLLQASDWNVQKAQKGIVFIDEIDKISRLSENRSITRDVSGEGVQQALLKIVEGSLVNIPPKGGRKHPEGNFIQIDTSDILFICAGAFDGLAEIIKKRTTQNVLGFTQEKMSKKEQEAILHLVQTHDLVTYGLIPELIGRLPVLSTLDSISLEAMVDILQKPKNALIKQYQQLFKMDEVDLIFEEEAIKEIAQLALERKTGARGLRAIIEDFCLDIMFDLPKLKGSEVRITKDCVLKQAEPLIIAKTHSKILP | soluble
MNANDLFGGLSESSGSSDEDDDTVMPQPTGAHNVLADLELSDDDGDEDFSRDGMRSDENQISPGQESVPTPITPRAPVVFSLSDGEDSMDMPDIDQMMMKRNAAAAAAAAAEEQAAREAEADRVAEANRAAETAKTAEKRKIDKISKSEPPRKQPRHDDNSEAGPSGQISGDDDLLDTNISLESFDLSKVNDARYQALIQQHQPEEEAPGPSRPAPARPARKLDDEEENELSRLKTQVLLSNFSQEQLERYESYRRSSFQKSTIRRLISQYTGGVNVGQSVVIAIAGLAKVFVGEVVEEALDIRDINEEEASNPLQPHHIRQAFLRLGEQGKLFPPIGPKQSHLE | not soluble
MRLIKAFLVQLLLLPIFFYKRFISPLTPPSCRFTPSCSSYAIEALRKYGPGKGLLLSIKRILRCHPWGGSGYDPVPLEHHHHHH | not soluble
MKRMLINATQQEELRVALVDGQRLYDLDIESPGHEQKKANIYKGKITRIEPSLEAAFVDYGAERHGFLPLKEIAREYFPANYSAHGRPNIKDVLREGQEVIVQIDKEERGNKGAALTTFISLAGSYLVLMPNNPRAGGISRRIEGDDRTELKEALASLELPEGMGLIVRTAGVGKSAEALQWDLSFRLKHWEAIKKAAESRPAPFLIHQESNVIVRAFRDYLRQDIGEILIDNPKVLELARQHIAALGRPDFSSKIKLYTGEIPLFSHYQIESQIESAFQREVRLPSGGSIVIDSTEALTAIDINSARATRGGDIEETAFNTNLEAADEIARQLRLRDLGGLIVIDFIDMTPVRHQRAVENRLREAVRQDRARIQISHISRFGLLEMSRQRLSPSLGESSHHVCPRCSGTGTVRDNESLSLSILRLIEEEALKENTQEVHAIVPVPIASYLLNEKRSAVNAIETRQDGVRCVIVPNDQMETPHYHVLRVRKGEETPTLSYMLPKLHEEAMALPSEEEFAERKRPEQPALATFAMPDVPPAPTPAEPAAPVVAPAPKAAPATPATPAQPGLLSRFFGALKALFSGGEETKPTEQPAPKAEAKPERQQDRRKPRQNNRRDRNERRDTRSERTEGSDNREENRRNRRQAQQQTAETREGRQQAEVTEKARTADEQQAPRRERSRRRNDDKRQAQQEAKALNVEEQSVQETEQEERVRPVQPRRKQRQLNQKVRYEQSVAEETVVAPVAEETVAAEPIVQEAPAPRTELVKVPLPVVAQTAPEQQEENNADNRDNGGMPRRSRRSPRHLRVSGQRRRRYRDERYPTQSPMPLTVACASPELASGKVWIRYPIVRPQDVQVEEQREQEEVQVQPMVTEVPVAAAVEPVVSAPVVEEMAEVVEAPVPVAEPQPEVVETTHPEVIAAAVTEQPQVITESDVAVAQEVAEHAEPVVEPQEETADIEEVAETAEVVVAEPEVVAQPAAPVVAEVAAEVETVTAVKPEITVEHNHATAPMTRAPAPEYVPEAPRHSDWQRPTFAFEGKGAAGGHTATHHASAAPARPQPVE | not soluble
MAANLSRNGPALQEAYVRVVTEKSPTDWALFTYEGNSNDIRVAGTGEGGLEEMVEELNSGKVMYAFCRVKDPNSGLPKFVLINWTGEGVNDVRKGACASHVSTMASFLKGAHVTINARAEEDVEPECIMEKVA | soluble
GSMSTRESFNPESYELDKSFRLTRFTELKGTGCKVPQDVLQKLLESLQENHFQEDEQFLGAVMPRLGIGMDTCVIPLRHGGLSLVQTTDYIYPIVDDPYMMGRIACANVLSDLYAMGVTECDNMLMLLGVSNKMTDRERDKVMPLIIQGFKDAAEEAGTSVTGGQTVLNPWIVLGGVATTVCQPNEFIMPDNAVPGDVLVLTKPLGTQVAVAVHQWLDIPEKWNKIKLVVTQEDVELAYQEAMMNMARLNRTAAGLMHTFNAHAATDITGFGILGHAQNLAKQQRNEVSFVIHNLPVLAKMAAVSKACGNMFGLMHGTCPETSGGLLICLPREQAARFCAEIKSPKYGEGHQAWIIGIVEKGNRTARIIDKPRIIEVAPQVATQNVNPTPGATS | soluble
MTTTEEAPKSPLFEAIDKNDTEAALALLKTKEQAAQRDPSGMSVLAAAAYRGNLTLVEKAIELKCDVNDKTDGTLYTPLMFAALSGKQDVCRLLMDSGARMYLVNGIGKTASELAAFVGHHECVAIINNHITIDVIEDLLRPKVNGKYEGAEEYPDELAVFIHSLCGSHEIHPVKIIFRFSKYPDSLKYKKKILYVIDRVFEKQLRCKESNEIMSLKLWLILFSMRETSKFVESNKEKSPEEASLQYAKLISTWQEGDETRRALDVMLRNAVASFPYKHSLLHDTLQKALQKSQIGERPSAYEYIVQALFGQRIAAVCQFCSVCGHPGAKKRCTQCKLAYCSQECQKFDWPIHKKVCSFLKTRQEVSPTDETAMSLDDIQAQIAKIDV | not soluble
SKFIIGIGGVTNGGKTTLTNRLIKALPNCCVVHQDDFFKPPDQIAVGMDGFKQWDVIDALDMEAMVNTIKGWLENPVKFARSHGIQVTPATEMEDPESQVHILIVEGFLLYNYKPLLDVFDKSYYITIPYEECKKRRSTRQYTVPDPPGLFDGHVWPMYLKHRFAMENCGLPIEYLDGLKTKDEIYNQVYEDVHNTLLNRL | soluble
MAARPLVTVYDEKYEATQSQIRLPAVFRTPIRPDLVSFIADQVRRNRRQAHAVNTKAGKQHSAESWGTGRAVARIPRVRGGGTHRSGQGAFGNMCRGGHMFAPLKVFRRWHRNVNIAQKRYAVSSAIAASGIPALLQARGHVIDQVAEVPLVVSDKVESFRKTKEAVVFLRRSHLWADIEKVYNSKRNRAGKGKLRNRQHKQKLGPVVIYGQDAECARAFRNIPGVDVMNVERLNLLKLAPGGHLGRLIIWTESAFKKLDTIYGTTVANSSQLKKGWSVPLPIMANSDFSRIIRSEEVVKAIRAPKKNPVLPKVHRNPLKKRTLLYKLNPYASILRKASKANVKK | not soluble
MTLPWNTFPGSTVPPVVPSVEDIIRMLVAGQQKIAIQNLLQSQSKEQVNGTSHDLQNWLTSLCISPSSSPTPSNASTSTIPAQMTNENVLHLQIQSQLFSNLGTPWFLNPEQHNKTNNAIRKRPKKEFICKYCARHFTKSYNLMIHERTHTNERPFHCETCGKSFRRQDHLRDHKYIHAKEKPHKCEICGKGFCQLRTLNVHRSCHHVQEPISETFMLGAIKFGKADSLLIDAEPLIDVTTI | not soluble
GLDSPTGFDSSDITANSFTVHWVAPRAPITGYIIRHHAEHSVGRPRQDRVPPSRNSITLTNLNPGTEYVVSIIAVNGREESPPLIGQQATVSDIPRDLEVIASTPTSLLISWEPPAVSVRYYRITYGETGGNSPVQEFTVPGSKSTATINNIKPGADYTITLYAVTGRGDSPASSKPVSINYKT | soluble
